Assay results as given in paper PMC5451543.
Numbering of substitutions follows the chain as printed. Results are given in words; binding and its absence hold for the method and conditions named. Binding seen in cells or lysates may run through a third protein. For part of these data: Where a sequence is shown, tags or fusion partners need not be part of it. Values belong to the binder of their own block, whether it stands above or below them.

The chains behind the UniProt entries cited, without tags or fusion partners. Where a name states a change or a piece, a line headed by the entry shows the natural chain unless it says otherwise.
UniProt P28070: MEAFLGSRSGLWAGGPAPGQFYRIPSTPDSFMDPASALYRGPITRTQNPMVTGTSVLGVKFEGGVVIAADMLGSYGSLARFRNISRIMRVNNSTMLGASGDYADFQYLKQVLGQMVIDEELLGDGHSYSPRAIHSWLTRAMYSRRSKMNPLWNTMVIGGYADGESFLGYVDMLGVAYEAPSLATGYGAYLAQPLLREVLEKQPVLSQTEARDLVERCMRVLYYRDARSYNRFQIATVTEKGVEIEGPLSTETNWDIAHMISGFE

How the values were obtained:
[1] = target: FLAG-β4 (human) (UniProt P28070); test: co-IP; HEK293T co-transfected with tagged proteins; FLAG lysis buffer (300 mM NaCl, 25 mM Tris–HCl pH 7.5, 2 mM EDTA, 1% Triton X-100); IP with anti-FLAG antibody, western blot; some panels with UBLCP1 knockout, siRpn1 or HA-Rpn1 overexpression
[2] = target: FLAG-β4 (human) (UniProt P28070); test: co-IP; HEK293T transfected with FLAG-β4 alone, 48 h; IP with anti-FLAG antibody; endogenous partners probed by western blot

binding [1]: no binding
B1: HA-UBLCP1 (protein, UniProt Q8WVY7 1-318)
chain: MALPIIVKWGGQEYSVTTLSEDDTVLDLKQFLKTLTGVLPERQKLLGLKVKGKPAENDVKLGALKLKPNTKIMMMGTREESLEDVLGPPPDNDDVVNDFDIEDEVVEVENREENLLKISRRVKEYKVEILNPPREGKKLLVLDVDYTLFDHRSCAETGVELMRPYLHEFLTSAYEDYDIVIWSATNMKWIEAKMKELGVSTNANYKITFMLDSAAMITVHTPRRGLIDVKPLGVIWGKFSEFYSKKNTIMFDDIGRNFLMNPQNGLKIRPFMKAHLNRDKDKELLKLTQYLKEIAKLDDFLDLNHKYWERYLSKKQGQ

binding [2]: no binding
B2: endogenous UBLCP1 (protein, UniProt Q8WVY7 1-318)
chain: B1 chain

binding [1]: no binding
B3: HA-UBLCP1 DDAA (protein, UniProt Q8WVY7 1-318)
chain: B1 chain with D143A, D145A
